According to the supplement of paper PMC7024190:
Some of the results follow. Single values are uncertain here, since repeats match poorly.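 The cells were human embryonic kidney cells carrying a Renilla luciferase gene, driven by the HSV-TK promoter, on a plasmid put in briefly by transfection. This is the first-round screen of about ten thousand compounds, looking for ones that raise reporter output.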

What follows are molecules tested on HEK 293FT (assay: log relative Renilla luciferase luminescence (reporter expression vs reference, reference not stated) (log (base not stated)); higher = higher recombinant reporter expression). Conditions: 10 µM; time after transfection 48 h.

Row | Structure (SMILES) | log
1 | CC#C[C@]1(O)CC[C@H]2[C@@H]3CCC4=CC(=O)CCC4=C3[C@@H](c3ccc(N(C)C)cc3)C[C@@]21C | -0.141
2 | CC(N/C(=N\C#N)Nc1ccncc1)C(C)(C)C (stereo not given) [Pinacidil monohydrate] | 0.111
3 | CC(C)[C@H]1CC[C@H](C(=O)N[C@H](Cc2ccccc2)C(=O)O)CC1 | 0.135
4 | CC[C@]1(O)C[C@H]2CN(CCc3c([nH]c4ccccc34)[C@@](C(=O)OC)(c3cc4c(cc3OC)N(C=O)[C@H]3[C@@](O)(C(=O)OC)[C@H](OC(C)=O)[C@]5(CC)C=CCN6CC[C@]43[C@@H]65)C2)C1 | -0.0272
5 | Cc1nc(=O)c2cc(CN(C)c3ccc(C(=O)N[C@@H](CCC(=O)O)C(=O)O)s3)ccc2[nH]1 | 0.0695
6 | COc1cc(CNC(=O)CCCC/C=C/C(C)C)ccc1O [Capsaicin] | 0.171
7 | O=C1Nc2ccc(Cl)cc2[C@@](C#CC2CC2)(C(F)(F)F)O1 | -0.245
8 | COc1nc(C)nc(Cl)c1NC1=NCCN1 | -0.174
9 | Cc1ncc([N+](=O)[O-])n1CC(C)O (stereo not given) [1-(2-Methyl-5-nitro-imidazol-1-yl)-propan-2-ol] | -0.169
10 | C=C1/C(=C\C=C2/CCC[C@]3(C)[C@@H]([C@H](C)CCCC(C)(C)O)CC[C@@H]23)C[C@@H](O)C[C@@H]1O | -0.199
11 | O=C(c1ccccc1)c1ccc2n1CCC2C(=O)O (stereo not given) | -0.235
12 | CC(Cc1ccccc1)(NC(=O)CN)c1ccccc1 (racemic) | -0.506
13 | CO[C@H]1/C=C/O[C@@]2(C)Oc3c(C)c(O)c4c(O)c(c(/C=N/N5CCN(C6CCCC6)CC5)c(O)c4c3C2=O)NC(=O)/C(C)=C\C=C\[C@H](C)[C@H](O)[C@@H](C)[C@@H](O)[C@@H](C)[C@H](OC(C)=O)[C@@H]1C | -0.909
14 | COc1cc2c(cc1OC)C(=O)C(CC1CCN(Cc3ccccc3)CC1)C2 (stereo not given) [Donepezil] | -0.491
15 | CNS(=O)(=O)Cc1ccc2[nH]cc(CCN(C)C)c2c1 | -0.151
16 | CC1(C)O[C@@H]2[C@@H](CO[C@@]3(COS(N)(=O)=O)OC(C)(C)O[C@@H]23)O1 | -0.0361
17 | C[C@@H](c1ncncc1F)[C@](O)(Cn1cncn1)c1ccc(F)cc1F | -0.142
18 | C[C@@H]1C[C@H]2[C@@H]3CCC4=CC(=O)C=C[C@]4(C)[C@@]3(F)[C@@H](O)C[C@]2(C)[C@H]1C(=O)CO | -0.0368
19 | Cc1c(OCC(F)(F)F)ccnc1C[S+]([O-])c1nc2ccccc2[nH]1 (stereo not given) | -0.0669
20 | Cc1nc2ccccn2c(=O)c1CCN1CCC(C(=O)c2ccc(F)cc2)CC1 | -0.0897

Structural class, those above containing a CF3 group
Row | Structure (SMILES) | log
7 | O=C1Nc2ccc(Cl)cc2[C@@](C#CC2CC2)(C(F)(F)F)O1 | -0.245
19 | Cc1c(OCC(F)(F)F)ccnc1C[S+]([O-])c1nc2ccccc2[nH]1 (stereo not given) | -0.0669

Additional structures follow.

Row | Structure (SMILES) | log
21 | O=c1c(O[C@@H]2O[C@H](CO)[C@@H](O)[C@H](O)[C@H]2O)c(-c2ccc(O)c(O)c2)oc2cc(O)cc(O)c12 [Isoquercitrin] | -0.118
22 | OCCN1C[C@H](O)[C@@H](O)[C@H](O)[C@H]1CO | -0.058
23 | CCN(CC)CC(=O)Nc1c(C)cccc1C | 0.0139
24 | CN(C)CCCSc1ccccc1NC(=O)/C=C/c1ccccc1 [Cinanserin] | 0.112
25 | Cc1cccc(C)c1NC(=O)C(C)N (stereo not given) | 0.0104
26 | CN1[C@@H](CC(=O)c2ccccc2)CCC[C@H]1C[C@H](O)c1ccccc1 | -0.194
27 | CC(C)(C#N)c1cc(Cn2cncn2)cc(C(C)(C)C#N)c1 | 0.113
28 | Nc1nnc(-c2cccc(Cl)c2Cl)c(N)n1 | 0.338
29 | CN1CCN(c2nc3cc(C(F)(F)F)ccc3n3cccc23)CC1 | 0.104
30 | Nc1[nH]c(=O)ncc1F | 0.0815
31 | CC[C@]1(O)C[C@@H]2CN(CCc3c([nH]c4ccccc34)[C@@](C(=O)OC)(c3cc4c(cc3OC)N(C)[C@H]3[C@@](O)(C(N)=O)[C@H](O)[C@]5(CC)C=CCN6CC[C@]43[C@@H]65)C2)C1 | -0.705
32 | CC(C)C[C@H](NC(=O)[C@@H](COC(C)(C)C)NC(=O)[C@H](Cc1ccc(O)cc1)NC(=O)[C@H](CO)NC(=O)[C@H](Cc1c[nH]c2ccccc12)NC(=O)[C@H](Cc1cnc[nH]1)NC(=O)[C@@H]1CCC(=O)N1)C(=O)N[C@@H](CCCNC(=N)N)C(=O)N1CCC[C@H]1C(=O)NNC(N)=O | 0.00866
33 | COc1cccc2c1C(=O)c1c(O)c3c(c(O)c1C2=O)C[C@@](O)(C(=O)CO)C[C@@H]3O[C@H]1C[C@H](N)[C@@H](O)[C@H](C)O1 | -1.27
34 | CCc1nn(CCCN2CCN(c3cccc(Cl)c3)CC2)c(=O)n1CCOc1ccccc1 [Nefazodone] | -0.394
35 | CC[C@H]1OC(=O)[C@H](C)[C@@H](O[C@H]2C[C@@](C)(OC)[C@@H](O)[C@H](C)O2)[C@H](C)[C@@H](O[C@@H]2O[C@H](C)C[C@H](N(C)C)[C@H]2O)[C@](C)(OC)C[C@@H](C)C(=O)[C@H](C)[C@@H](O)[C@]1(C)O | 0.105
36 | CC(C)c1ccc2c(c1)c(SC(C)(C)C)c(CC(C)(C)C(=O)O)n2Cc1ccc(Cl)cc1 | -0.381
37 | COc1cc(C(=O)NS(=O)(=O)c2ccccc2C)ccc1Cc1cn(C)c2ccc(NC(=O)OC3CCCC3)cc12 | -0.155
38 | COc1cc(/C=C/c2ccc(O)cc2)cc(OC)c1 | -0.376
39 | CC(=O)N1CCN(c2ccc(OCC3COC(Cn4ccnc4)(c4ccc(Cl)cc4Cl)O3)cc2)CC1 (stereo not given) | -0.437
40 | CN(C)[C@@H]1C(O)=C(C(=O)NCN2CCCC2)C(=O)[C@@]2(O)C(O)=C3C(=O)c4c(O)cccc4[C@@](C)(O)[C@H]3C[C@@H]12 | 0.252
